According to patent US20250353898A1, “SERPIN PEPTIDE DERIVATIVES AND METHODS OF USING THE SAME” (priority 2022, published 2025):
Converted amounts (≈) assume the structure as drawn. Part of at least one peptide drawing is inferred or uncertain, most often the ends. Positions of bridges follow the written chain, without caps; N, C: chain ends. Non-standard residues stand in square brackets, D forms with d. Residues, ends and D or L forms follow the SMILES beside them. Nle = CCCC[C@H](N)C(=O)O

Assays:
[1] = tested on: NFκB; test: NFκB reporter assay (SEAP) in THP1-XBlue-MD2-CD14 cells after LPS; format: cell-based
Procedure: The NFκB inducible Secreted Embryonic Alkaline Phosphatase (SEAP) was measured in the supernatant and read for absorbance.
(§1) Various SERPIN peptide derivatives were screened in vitro for their ability to reduce TNFα and NFκB secretion via LRP-1 activation. The NFκB reporter cells (THP1-XBlue-MD2-CD14 cells) were treated with each peptide derivative at various concentrations, up to 100 μg/ml before being insulted with LPS (5 ng/ml) and incubated overnight. The NFκB inducible Secreted Embryonic Alkaline Phosphatase (SEAP) was measured in the supernatant and read for absorbance. IMG Microglial cells were treated with each peptide derivative at various concentrations, up to 100 μg/ml before LPS (100 ng/ml) stimulation for 24 hours. An ELISA was used to measure TNFα in the supernatant ([…]).

[2] = tested on: TNFα; test: TNFα secretion in IMG microglial cells after LPS (ELISA); format: cell-based; details: LPS 100 ng/ml, 24 hours
Procedure: In the NFκB reporter cells, the NFκB inducible Secreted Embryonic Alkaline Phosphatase (SEAP) was measured in the supernatant. TNFα secretion in the supernatant was measured via ELISA.
as §1

[3] = tested on: IL-6; test: IL-6 secretion in IMG microglial cells after LPS (ELISA); format: cell-based; details: LPS 100 ng/ml, 24 hours
[4] = tested on: LPS mediated cytokines; test: Cytokine profile in LPS induced IMG microglial cells (multiplex assay); format: cell-based; details: 100 μg/ml, 24 hours, LPS 100 ng/ml
[5] = tested on: LPS induced neuroinflammation; test: LPS induced neuroinflammatory model; format: in vivo, C57BL/6 mice
[6] = tested on: LC3II/I ratio; test: Autophagy marker LC3II/I ratio in IMG microglial cells (western blot); format: cell-based; details: 100 μg/ml before LPS 100 ng/ml, 24 hours
[7] = tested on: LRP1; test: LRP1 protein expression in IMG microglial cells (western blot); format: cell-based; details: 100 μg/ml
[8] = tested on: TSLP; test: polyI:C-induced TSLP production by SPINK7 knockout EPC2 cells (ELISA); format: cell-based, Human; details: 200 μg/ml, Poly I:C 5 μg/ml, 8 hours, SPINK7 KO EPC2 cells
[9] = 100 μg subcutaneously daily 1 hour after LPS 1 mg/kg i.p., 4 days

CCCC[C@@H]1NC(=O)[C@H](CC(C)C)NC(=O)[C@H](Cc2ccccc2)NC(=O)[C@H](C(C)C)NC(=O)[C@H](Cc2ccccc2)NC(=O)[C@@H]2CCCN2C(=O)[C@@H](NC(=O)[C@H](CCCNC(=N)N)NC(=O)[C@H](CCCNC(=N)N)NC(=O)[C@H](CCCNC(=N)N)NC(C)=O)CSSC[C@@H](C(=O)O)NC1=O [SA7] (Ac-RRRCPFVFL[Nle]C-OH; disulfide 4-11)
NFκB inhibition activity ([1]; 50 μg/ml, LPS 5 ng/ml overnight, compared to SP163M (and SP22)): improved activity in NFκB inhibition
EC50 NFκB ([1]; NFκB reporter cells, LPS 5 ng/ml): 470 µg/mL (≈ 324 µM)
EC50 TNFα [2]: 124.3 µg/mL (≈ 85.7 µM)
EC50 IL-6 [3]: 318.5 µg/mL (≈ 220 µM)
LPS mediated cytokines in supernatant [4]: reduced several LPS mediated cytokines including IL-6, TNFα, IL-13, IL-12 and CXCL1 more potently than peptide SP163M
IL-6 level in brain homogenate ([5]; 100 μg s.c. daily, Day 5, LEGENDplex panel): no detectable levels
IL-17A, IL-12, TNFα and GM-CSF levels in brain homogenate ([5]; 100 μg s.c. daily, Day 5, compared to vehicle and SP163M): significantly lower levels
clinical scores [5, 9]: significantly improved
weight loss [5, 9]: slight benefit in weight loss
GFAP expression in brain lysate ([5]; western blot, compared to SP163M and vehicle): significantly decreases
NfL protein expression in brain homogenate ([5]; western blot, compared to vehicle and SP163M): significantly increases
autophagic flux (LC3II/I ratio) [6]: restored autophagic functioning to near baseline levels
LRP1 protein expression ([7]; LPS activated microglial cells): increased LRP1 protein expression
LRP1 expression ([7]; in the absence of LPS): significantly increased LRP1 expression compared to SP163M
TSLP production in supernatant [8]: more potently than SP163M
